Data published in the supplement of paper PMC11006884.
This is a selection; strong and weak results do not stand in their true shares.

Chains of the proteins cited; added tags and fusions are not shown. Lines headed by an entry give the natural chain unless they say otherwise; changes in a name come on top.
UniProt Q15750: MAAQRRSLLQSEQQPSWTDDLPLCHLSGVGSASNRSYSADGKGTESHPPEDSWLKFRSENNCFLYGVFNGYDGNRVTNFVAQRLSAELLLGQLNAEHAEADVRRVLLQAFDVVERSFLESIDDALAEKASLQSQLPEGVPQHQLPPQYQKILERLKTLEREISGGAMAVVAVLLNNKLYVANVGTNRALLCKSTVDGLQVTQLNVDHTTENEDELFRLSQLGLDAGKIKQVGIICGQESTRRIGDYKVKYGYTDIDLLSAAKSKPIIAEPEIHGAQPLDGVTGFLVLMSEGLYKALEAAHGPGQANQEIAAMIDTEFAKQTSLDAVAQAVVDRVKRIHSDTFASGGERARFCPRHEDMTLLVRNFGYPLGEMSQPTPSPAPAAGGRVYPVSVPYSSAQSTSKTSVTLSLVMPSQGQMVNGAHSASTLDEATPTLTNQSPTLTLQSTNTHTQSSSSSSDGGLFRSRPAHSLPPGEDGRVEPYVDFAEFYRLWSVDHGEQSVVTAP
UniProt Q4VCS5: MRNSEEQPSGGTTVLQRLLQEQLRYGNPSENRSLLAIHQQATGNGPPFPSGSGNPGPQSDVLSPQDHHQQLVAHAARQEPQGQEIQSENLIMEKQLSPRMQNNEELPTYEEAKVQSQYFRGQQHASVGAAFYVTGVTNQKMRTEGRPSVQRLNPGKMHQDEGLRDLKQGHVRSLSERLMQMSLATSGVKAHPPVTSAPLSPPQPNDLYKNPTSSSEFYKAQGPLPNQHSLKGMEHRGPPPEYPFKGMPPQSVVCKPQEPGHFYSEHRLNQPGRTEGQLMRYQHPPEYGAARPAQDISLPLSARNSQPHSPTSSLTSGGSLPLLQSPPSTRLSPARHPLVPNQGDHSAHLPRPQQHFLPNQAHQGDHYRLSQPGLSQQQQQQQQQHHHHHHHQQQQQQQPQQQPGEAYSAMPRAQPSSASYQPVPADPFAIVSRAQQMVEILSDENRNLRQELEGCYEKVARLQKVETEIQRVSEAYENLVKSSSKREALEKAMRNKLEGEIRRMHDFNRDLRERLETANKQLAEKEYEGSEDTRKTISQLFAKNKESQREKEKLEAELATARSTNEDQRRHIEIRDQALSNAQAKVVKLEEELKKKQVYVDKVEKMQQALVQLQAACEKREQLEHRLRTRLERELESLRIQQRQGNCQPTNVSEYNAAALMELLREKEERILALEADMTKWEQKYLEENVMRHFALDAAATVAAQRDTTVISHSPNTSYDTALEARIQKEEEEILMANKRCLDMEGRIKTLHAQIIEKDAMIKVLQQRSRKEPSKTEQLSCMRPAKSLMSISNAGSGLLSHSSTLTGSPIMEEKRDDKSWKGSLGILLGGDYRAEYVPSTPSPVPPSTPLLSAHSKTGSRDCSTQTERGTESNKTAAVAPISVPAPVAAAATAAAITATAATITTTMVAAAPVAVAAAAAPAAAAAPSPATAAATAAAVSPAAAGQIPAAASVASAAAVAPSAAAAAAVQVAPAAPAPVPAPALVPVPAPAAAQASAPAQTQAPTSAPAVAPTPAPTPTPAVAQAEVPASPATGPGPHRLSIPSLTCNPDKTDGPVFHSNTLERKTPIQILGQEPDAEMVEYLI
UniProt Q15723: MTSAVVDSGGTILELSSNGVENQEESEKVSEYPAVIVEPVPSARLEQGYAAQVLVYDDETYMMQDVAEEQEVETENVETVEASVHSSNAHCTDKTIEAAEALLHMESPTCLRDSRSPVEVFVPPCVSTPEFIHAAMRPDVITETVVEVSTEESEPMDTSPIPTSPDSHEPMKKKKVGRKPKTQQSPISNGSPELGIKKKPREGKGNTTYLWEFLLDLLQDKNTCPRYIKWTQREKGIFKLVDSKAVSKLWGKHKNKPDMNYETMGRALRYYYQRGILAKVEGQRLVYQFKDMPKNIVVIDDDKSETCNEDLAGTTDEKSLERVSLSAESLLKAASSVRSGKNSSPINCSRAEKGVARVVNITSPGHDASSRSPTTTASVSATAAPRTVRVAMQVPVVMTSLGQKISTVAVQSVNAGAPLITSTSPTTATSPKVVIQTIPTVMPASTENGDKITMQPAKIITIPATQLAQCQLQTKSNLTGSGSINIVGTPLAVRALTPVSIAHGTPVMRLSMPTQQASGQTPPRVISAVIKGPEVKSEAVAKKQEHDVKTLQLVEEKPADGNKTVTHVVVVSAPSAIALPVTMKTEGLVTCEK
UniProt Q3LXA3: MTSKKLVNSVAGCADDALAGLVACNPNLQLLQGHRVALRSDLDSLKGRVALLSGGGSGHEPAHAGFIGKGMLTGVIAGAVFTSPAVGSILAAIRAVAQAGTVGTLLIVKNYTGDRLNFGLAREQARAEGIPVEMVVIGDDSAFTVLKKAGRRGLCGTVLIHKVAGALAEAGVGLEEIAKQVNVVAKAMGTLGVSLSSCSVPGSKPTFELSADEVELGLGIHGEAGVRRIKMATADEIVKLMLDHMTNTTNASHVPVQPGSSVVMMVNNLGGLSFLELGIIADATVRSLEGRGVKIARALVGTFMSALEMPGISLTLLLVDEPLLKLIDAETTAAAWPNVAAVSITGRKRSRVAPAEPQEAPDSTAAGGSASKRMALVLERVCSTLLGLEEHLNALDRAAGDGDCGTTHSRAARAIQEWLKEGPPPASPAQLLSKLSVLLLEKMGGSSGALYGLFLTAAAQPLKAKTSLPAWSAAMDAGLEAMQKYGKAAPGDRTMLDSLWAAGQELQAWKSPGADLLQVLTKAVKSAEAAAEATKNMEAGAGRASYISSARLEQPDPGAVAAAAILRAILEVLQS
UniProt Q15185: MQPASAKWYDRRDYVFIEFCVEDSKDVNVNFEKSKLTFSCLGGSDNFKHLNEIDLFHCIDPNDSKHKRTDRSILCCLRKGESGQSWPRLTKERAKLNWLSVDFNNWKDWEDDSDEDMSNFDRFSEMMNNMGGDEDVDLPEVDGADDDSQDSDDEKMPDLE
UniProt Q15398: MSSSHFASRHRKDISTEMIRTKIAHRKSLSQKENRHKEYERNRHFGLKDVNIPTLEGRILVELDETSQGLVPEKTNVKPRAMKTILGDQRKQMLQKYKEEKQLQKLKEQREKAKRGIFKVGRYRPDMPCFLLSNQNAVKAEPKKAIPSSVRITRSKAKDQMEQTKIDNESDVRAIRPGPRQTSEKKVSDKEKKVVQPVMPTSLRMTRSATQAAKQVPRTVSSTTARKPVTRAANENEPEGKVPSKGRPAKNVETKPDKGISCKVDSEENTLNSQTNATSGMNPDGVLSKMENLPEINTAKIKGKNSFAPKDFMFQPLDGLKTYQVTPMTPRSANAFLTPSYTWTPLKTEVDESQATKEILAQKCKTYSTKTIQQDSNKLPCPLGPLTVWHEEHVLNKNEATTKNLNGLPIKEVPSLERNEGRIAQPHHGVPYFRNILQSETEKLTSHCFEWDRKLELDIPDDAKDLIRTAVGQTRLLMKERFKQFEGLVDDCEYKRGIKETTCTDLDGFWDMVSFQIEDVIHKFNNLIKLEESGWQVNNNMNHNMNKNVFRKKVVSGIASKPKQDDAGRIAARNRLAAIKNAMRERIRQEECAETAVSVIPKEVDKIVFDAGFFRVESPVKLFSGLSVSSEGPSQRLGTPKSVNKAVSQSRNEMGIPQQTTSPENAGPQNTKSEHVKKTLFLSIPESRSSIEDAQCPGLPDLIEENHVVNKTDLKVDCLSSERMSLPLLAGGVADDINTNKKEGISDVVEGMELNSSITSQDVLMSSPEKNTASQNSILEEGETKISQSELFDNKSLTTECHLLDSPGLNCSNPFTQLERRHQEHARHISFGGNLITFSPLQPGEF
UniProt Q15061: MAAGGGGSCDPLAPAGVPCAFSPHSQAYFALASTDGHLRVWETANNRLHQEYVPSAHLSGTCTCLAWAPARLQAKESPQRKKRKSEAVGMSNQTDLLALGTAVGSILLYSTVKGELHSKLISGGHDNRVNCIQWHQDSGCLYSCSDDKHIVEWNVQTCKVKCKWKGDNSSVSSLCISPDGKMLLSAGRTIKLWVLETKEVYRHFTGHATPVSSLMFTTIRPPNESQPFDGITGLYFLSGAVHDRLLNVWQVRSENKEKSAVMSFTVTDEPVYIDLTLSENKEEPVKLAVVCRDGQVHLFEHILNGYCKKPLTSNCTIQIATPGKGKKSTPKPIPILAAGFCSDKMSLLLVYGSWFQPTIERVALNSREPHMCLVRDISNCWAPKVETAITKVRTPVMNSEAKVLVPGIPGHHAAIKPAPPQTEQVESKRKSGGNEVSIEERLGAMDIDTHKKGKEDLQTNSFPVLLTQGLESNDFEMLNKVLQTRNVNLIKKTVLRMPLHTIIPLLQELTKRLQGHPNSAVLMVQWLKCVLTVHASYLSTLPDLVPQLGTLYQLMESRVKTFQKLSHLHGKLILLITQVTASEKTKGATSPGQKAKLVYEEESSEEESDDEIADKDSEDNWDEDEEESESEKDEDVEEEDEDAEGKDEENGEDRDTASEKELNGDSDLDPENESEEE
UniProt Q15599: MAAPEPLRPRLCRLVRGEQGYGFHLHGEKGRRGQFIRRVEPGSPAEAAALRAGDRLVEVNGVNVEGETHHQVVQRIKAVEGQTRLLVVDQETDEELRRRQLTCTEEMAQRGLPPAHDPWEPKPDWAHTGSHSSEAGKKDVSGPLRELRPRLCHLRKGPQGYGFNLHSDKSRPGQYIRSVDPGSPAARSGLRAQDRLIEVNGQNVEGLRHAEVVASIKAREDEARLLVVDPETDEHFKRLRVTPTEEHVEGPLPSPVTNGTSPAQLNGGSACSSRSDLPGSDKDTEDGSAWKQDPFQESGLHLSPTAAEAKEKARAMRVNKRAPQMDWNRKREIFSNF
UniProt Q15365, whole entry, looked up: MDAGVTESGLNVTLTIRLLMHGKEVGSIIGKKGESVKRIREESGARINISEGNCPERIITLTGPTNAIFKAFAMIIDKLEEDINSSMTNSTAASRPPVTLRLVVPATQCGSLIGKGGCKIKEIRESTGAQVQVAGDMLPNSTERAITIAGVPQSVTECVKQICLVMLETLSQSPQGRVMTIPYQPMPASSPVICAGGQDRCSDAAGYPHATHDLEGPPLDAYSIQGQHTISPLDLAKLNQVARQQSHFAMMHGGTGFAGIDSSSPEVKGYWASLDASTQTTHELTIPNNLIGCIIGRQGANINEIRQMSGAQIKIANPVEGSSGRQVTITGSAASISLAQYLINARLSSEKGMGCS
UniProt Q17RN3: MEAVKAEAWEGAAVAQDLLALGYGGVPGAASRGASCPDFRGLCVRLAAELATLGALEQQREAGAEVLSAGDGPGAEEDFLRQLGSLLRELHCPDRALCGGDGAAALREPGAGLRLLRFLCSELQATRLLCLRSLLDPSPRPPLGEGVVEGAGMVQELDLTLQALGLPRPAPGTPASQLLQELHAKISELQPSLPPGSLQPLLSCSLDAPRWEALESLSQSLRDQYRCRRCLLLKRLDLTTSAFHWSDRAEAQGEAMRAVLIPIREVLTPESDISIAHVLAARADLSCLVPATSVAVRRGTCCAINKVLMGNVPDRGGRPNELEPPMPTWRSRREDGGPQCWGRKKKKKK
UniProt Q15738: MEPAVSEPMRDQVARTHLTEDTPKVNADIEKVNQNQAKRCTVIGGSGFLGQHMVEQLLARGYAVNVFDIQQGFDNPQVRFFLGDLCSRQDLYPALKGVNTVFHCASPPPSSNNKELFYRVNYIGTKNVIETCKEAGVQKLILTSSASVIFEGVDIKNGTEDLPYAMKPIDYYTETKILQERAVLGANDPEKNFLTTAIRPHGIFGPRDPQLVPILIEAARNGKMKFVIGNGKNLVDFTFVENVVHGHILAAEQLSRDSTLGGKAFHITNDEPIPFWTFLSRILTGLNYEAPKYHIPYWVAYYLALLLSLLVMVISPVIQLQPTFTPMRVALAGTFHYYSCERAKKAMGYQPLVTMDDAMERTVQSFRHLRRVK
UniProt Q16134: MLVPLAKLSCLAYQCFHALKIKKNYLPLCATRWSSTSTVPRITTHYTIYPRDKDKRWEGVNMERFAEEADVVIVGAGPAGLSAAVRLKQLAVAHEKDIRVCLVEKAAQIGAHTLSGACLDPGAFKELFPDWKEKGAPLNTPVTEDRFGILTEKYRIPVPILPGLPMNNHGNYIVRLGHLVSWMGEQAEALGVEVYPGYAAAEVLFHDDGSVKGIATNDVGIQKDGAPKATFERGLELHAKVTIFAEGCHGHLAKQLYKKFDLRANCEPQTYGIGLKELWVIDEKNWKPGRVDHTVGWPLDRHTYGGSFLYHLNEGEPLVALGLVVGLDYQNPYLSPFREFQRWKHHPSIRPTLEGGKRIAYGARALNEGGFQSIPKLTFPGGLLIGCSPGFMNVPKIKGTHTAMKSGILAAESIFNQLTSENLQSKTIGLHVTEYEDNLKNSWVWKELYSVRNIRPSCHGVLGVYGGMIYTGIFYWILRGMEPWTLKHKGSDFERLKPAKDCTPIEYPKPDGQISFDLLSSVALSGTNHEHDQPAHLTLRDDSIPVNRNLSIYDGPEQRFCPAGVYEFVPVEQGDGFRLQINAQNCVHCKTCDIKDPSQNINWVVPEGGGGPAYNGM

Compound: COC(=O)C#Cc1ccccc1 [methyl 3-phenylpropiolate]
Test: log2 ratio of iodoacetamide-alkyne labeling of the cysteine site, DMSO over compound (competition); higher = stronger covalent engagement of the cysteine by the compound, active = 1 or more
Settings: 500 µM; treatment time 1 h; system: HEK293T cell lysate
Method in brief: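 Three replicates, each with duplicate channels, were prepared from HEK293T lysate (2 mg/mL) treated with vehicle or electrophile at 500 µM for 1 h at ambient temperature. Iodoacetamide alkyne was then applied for 1 h, and samples were clicked to sCIP-TMT reagents, pooled, trypsin-digested overnight at 37 °C, enriched on streptavidin, acid-eluted and analysed on Orbitrap Eclipse LC-MS/MS with FAIMS, with FragPipe quantification. The log2 competition ratio per cysteine is the mean control-channel divided by the mean compound-channel reporter intensity. Cysteines quantified in only one replicate were left out.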

log2 ratio of iodoacetamide-alkyne labeling, inactive:
RALBP1 C451 (UniProt Q15311) 0.237
LRRC41 C170 (UniProt Q15345) 0.328
UniProt Q15149_C530 0.00328
UniProt Q15750_C24 0.554
AMOT C1047 (UniProt Q4VCS5) 0.316
R3HDM1 C304 (UniProt Q15032) 0.1
EEA1 C1405 (UniProt Q15075) 0.0817
ELF2 C470 (UniProt Q15723) 0.626
UniProt Q15418_C552 0.153
TRIP6 C399 (UniProt Q15654) 0.245
TNIP1 C212 (UniProt Q15025) -0.0676
UniProt Q15149_C3821 0.398
UniProt Q3LXA3_C24 0.218
ACOX1 C199 (UniProt Q15067) 0.0457
LRRC14 C71 (UniProt Q15048) 0.318
GUK1 C98 (UniProt Q16774) -0.209
UniProt Q16352_C10 0.636
PTGES3 C58 (UniProt Q15185) 0.356
DLGAP5 C592 (UniProt Q15398) 0.483
TWISTNB C28 (UniProt Q3B726) 0.889
WDR43 C380 (UniProt Q15061) 0.495
LRRC41 C588 (UniProt Q15345) 0.225
SMAD2 C312 (UniProt Q15796) 0.118
SLC9A3R2 C271 (UniProt Q15599) 0.501
SEC23B C434 (UniProt Q15437) 0.262
UniProt Q15365_C158 0.366
PWP2 C24 (UniProt Q15269) -0.172
FAM98C C287 (UniProt Q17RN3) 0.129
UniProt Q15042_C873 0.165
ANO6 C105 (UniProt Q4KMQ2) 0.0829
PPA1 C114 (UniProt Q15181) -0.223
TBCE C371 (UniProt Q15813) 0.185
EEA1 C1402 (UniProt Q15075) 0.0817
NSDHL C86 (UniProt Q15738) -0.0927
TRIP13 C14 (UniProt Q15645) 0.337
ETFDH C387 (UniProt Q16134) 0.534
CNN3 C59 (UniProt Q15417) -0.0278

An excerpt taken from the entries so far:
log2 ratio of iodoacetamide-alkyne labeling, inactive:
UniProt Q16352_C10 0.636
PTGES3 C58 (UniProt Q15185) 0.356
